{"sequences": {"note": "Protein sequences, listed by entry. Tags and fused reporters are not part of them. Residues count along the entry.", "UniProt P38646, residues 47-679": "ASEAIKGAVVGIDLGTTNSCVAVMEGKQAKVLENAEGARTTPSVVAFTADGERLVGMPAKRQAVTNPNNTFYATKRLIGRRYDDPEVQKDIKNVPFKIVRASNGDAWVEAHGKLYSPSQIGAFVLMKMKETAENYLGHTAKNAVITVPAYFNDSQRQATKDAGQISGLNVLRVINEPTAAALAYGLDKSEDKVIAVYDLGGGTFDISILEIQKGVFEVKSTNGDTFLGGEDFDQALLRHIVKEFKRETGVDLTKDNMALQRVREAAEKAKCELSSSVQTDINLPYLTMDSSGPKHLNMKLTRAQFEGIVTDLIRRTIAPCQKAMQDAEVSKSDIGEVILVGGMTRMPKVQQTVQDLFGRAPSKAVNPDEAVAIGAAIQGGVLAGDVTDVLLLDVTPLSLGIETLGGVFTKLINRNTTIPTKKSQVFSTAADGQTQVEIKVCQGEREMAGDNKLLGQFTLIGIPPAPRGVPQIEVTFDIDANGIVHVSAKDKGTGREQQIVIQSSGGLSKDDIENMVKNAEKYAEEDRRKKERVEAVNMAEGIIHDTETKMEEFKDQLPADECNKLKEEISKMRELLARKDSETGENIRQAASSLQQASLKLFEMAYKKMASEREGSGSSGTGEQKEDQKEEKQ", "UniProt P9WPE7": "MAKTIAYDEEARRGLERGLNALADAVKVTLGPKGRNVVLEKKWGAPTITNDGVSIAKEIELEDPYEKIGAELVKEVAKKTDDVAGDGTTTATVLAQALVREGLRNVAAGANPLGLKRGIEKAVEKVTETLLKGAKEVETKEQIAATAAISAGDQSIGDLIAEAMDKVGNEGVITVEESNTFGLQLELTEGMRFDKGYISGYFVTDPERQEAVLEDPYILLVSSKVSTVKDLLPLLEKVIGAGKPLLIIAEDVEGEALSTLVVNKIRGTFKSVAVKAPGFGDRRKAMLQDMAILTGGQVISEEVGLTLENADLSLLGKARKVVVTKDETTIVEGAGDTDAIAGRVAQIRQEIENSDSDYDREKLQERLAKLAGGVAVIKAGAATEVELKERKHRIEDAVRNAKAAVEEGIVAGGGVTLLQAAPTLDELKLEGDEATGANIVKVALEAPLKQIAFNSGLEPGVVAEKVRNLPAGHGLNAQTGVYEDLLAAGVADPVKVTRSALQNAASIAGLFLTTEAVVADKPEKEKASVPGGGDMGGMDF"}, "source": "paper PMC5399554", "target": "mortalin-mDHFR F3 fusion protein (human) (UniProt P38646)", "assay": "split reporter", "note": "These are yes or no findings as the source states them, for the method shown. Binding seen in cells or lysates may run through a third protein. Some results given as binding are weak or reduced against the parent protein; the word gives no strength.", "data": [{"substance": "Cpn60.2-mDHFR F1,2 fusion protein (from UniProt P9WPE7 1-540)", "values": [{"measurement": "binding", "result": "binds"}]}]}
